Experimental data: PubChem BioAssay AID743454 (Peter MacCallum Cancer Centre, 2014)
Here is a random part of about 18,000 reagents tested. 450 of them (2.5%) were called active. 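Single biological run; no consistent viability z cut-off exists, so the class columns, not z-scores, define the calls.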

Aim: 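Search for knock-downs that restore vorinostat killing in resistant colon cancer cells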 (primary screen)
Cells: human HCT116-VR colon cancer cells, selected for vorinostat resistance
Knock-down reagent: siRNA pool against human genes, 40 nM siRNA pool
Duration: vorinostat for 24 h, read-out about 72 h after transfection
Conditions: vorinostat at 2.5 µM final
Detection: 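Cell viability by CellTiter-Fluor and caspase 3/7 activity by luminescence, each scaled to mock wells per plate, duplicates averaged, then robust z-scored over all plates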
Reading the numbers: viability robust z-score: higher = more viable cells than screen typical; caspase robust z-score: higher = more caspase 3/7 activity than screen typical
Active means: 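Hits are knock-downs in viability class RV1/RV2 or caspase class CA1/CA2, excluding ones that killed cells in the no-drug cell-count arm; hits then retested with single siRNAs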

| gene symbol | viability hit class | caspase hit class | viability robust z-score | caspase robust z-score | call |
| --- | --- | --- | --- | --- | --- |
| ZFP3 | no change | no change | 0.72 | 0.05 | inactive |
| AGTPBP1 | no change | no change | 1.14 | 0.35 | inactive |
| RLBP1 | no change | no change | 0.2 | 0.08 | inactive |
| ELAC2 | no change | no change | -1 | -0.98 | inactive |
| HAPLN2 | no change | no change | -0.74 | 2.02 | inactive |
| SRC | no change | no change | -1.16 | -0.72 | inactive |
| CCDC93 | no change | no change | -0.72 | 0.6 | inactive |
| MRFAP1L1 | no change | no change | -1.13 | 0.67 | inactive |
| CT47A2 | no change | no change | 0.4 | 3.23 | inactive |
| ASAH2 | no change | no change | 0.39 | -0.92 | inactive |
| CYP26A1 | no change | no change | 1.04 | 2.05 | inactive |
| CWC27 | no change | no change | -0.55 | 0.6 | inactive |
| ME1 | no change | no change | 0.83 | -0.16 | inactive |
| HAS1 | no change | no change | -1.41 | 0.95 | inactive |
| ZNF320 | no change | no change | 0.3 | -0.66 | inactive |
| ABCC12 | no change | no change | -0.02 | -0.21 | inactive |
| SLC17A5 | no change | no change | 0.38 | 0.18 | inactive |
| GCGR | no change | no change | 0.34 | -0.71 | inactive |
| DGKE | no change | no change | -2.27 | 1.76 | inactive |
| PGBDF | no change | no change | -2.1 | 2.11 | inactive |
| CHD6 | no change | no change | 1.79 | -0.32 | inactive |
| ZNG1A | no change | no change | 0.85 | -0.82 | inactive |
| SLC6A17 | no change | no change | -0.15 | -0.78 | inactive |

Sorted by “caspase robust z-score” (ascending): some entries from above
| gene symbol | viability hit class | caspase hit class | viability robust z-score | caspase robust z-score | call |
| --- | --- | --- | --- | --- | --- |
| ASAH2 | no change | no change | 0.39 | -0.92 | inactive |
| CWC27 | no change | no change | -0.55 | 0.6 | inactive |
| CYP26A1 | no change | no change | 1.04 | 2.05 | inactive |
| CT47A2 | no change | no change | 0.4 | 3.23 | inactive |
